# Results taken from article PMC3104997.
# Chains of the proteins cited; added tags and fusions are not shown. Lines headed by an entry give the natural chain unless they say otherwise; changes in a name come on top. Residues count along the entry.
# UniProt Q62433: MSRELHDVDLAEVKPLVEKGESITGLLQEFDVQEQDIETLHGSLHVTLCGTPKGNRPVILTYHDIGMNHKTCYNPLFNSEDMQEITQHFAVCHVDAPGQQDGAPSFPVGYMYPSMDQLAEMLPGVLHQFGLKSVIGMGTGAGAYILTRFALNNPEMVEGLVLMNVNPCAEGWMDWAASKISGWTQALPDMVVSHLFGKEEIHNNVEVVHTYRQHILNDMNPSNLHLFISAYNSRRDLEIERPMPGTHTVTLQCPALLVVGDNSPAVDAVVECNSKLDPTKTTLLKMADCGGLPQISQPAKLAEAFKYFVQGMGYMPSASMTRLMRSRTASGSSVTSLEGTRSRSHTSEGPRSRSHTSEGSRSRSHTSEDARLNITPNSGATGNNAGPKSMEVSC
# UniProt Q9WVC6: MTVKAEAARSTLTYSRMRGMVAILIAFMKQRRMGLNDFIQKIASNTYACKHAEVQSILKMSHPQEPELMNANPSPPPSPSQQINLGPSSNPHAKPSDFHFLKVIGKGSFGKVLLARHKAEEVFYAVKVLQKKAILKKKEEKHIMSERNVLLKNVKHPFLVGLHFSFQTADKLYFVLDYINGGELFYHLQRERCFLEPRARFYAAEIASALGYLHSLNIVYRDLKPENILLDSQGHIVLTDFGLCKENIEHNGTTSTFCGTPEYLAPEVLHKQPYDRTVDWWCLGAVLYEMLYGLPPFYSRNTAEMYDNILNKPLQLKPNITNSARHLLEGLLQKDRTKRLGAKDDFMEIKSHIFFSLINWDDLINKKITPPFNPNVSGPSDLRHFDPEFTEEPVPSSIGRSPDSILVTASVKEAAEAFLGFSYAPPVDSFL
# UniProt Q92597: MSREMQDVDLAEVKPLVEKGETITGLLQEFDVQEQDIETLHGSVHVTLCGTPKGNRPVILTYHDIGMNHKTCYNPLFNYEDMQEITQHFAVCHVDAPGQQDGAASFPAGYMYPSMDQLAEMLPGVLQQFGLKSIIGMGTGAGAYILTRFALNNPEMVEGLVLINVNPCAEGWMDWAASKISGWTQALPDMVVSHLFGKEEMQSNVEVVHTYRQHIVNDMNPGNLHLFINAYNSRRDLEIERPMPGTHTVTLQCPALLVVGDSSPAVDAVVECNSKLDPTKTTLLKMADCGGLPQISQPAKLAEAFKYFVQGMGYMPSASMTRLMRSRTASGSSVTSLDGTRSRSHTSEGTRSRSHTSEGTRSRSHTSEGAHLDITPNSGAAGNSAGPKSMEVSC
# UniProt P15116, residues 160-906: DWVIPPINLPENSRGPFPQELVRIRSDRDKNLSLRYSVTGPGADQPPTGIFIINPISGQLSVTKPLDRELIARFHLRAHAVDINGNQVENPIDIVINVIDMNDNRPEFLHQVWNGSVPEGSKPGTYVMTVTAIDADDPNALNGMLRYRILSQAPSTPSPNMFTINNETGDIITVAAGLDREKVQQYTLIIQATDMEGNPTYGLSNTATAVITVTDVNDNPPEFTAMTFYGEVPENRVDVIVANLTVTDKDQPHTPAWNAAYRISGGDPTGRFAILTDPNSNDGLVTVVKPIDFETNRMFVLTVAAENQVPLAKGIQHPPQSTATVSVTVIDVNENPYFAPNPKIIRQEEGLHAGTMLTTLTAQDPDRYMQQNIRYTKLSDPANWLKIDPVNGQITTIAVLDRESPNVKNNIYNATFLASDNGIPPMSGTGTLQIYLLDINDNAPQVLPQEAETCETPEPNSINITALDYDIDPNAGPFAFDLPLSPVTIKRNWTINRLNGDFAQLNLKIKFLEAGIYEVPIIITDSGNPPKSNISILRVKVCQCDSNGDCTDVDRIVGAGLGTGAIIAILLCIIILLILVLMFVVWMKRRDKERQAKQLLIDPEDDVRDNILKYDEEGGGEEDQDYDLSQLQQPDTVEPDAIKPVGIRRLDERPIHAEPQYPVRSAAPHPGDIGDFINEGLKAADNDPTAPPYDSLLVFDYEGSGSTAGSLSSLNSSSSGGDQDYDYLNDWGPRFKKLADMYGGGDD
# UniProt P35222: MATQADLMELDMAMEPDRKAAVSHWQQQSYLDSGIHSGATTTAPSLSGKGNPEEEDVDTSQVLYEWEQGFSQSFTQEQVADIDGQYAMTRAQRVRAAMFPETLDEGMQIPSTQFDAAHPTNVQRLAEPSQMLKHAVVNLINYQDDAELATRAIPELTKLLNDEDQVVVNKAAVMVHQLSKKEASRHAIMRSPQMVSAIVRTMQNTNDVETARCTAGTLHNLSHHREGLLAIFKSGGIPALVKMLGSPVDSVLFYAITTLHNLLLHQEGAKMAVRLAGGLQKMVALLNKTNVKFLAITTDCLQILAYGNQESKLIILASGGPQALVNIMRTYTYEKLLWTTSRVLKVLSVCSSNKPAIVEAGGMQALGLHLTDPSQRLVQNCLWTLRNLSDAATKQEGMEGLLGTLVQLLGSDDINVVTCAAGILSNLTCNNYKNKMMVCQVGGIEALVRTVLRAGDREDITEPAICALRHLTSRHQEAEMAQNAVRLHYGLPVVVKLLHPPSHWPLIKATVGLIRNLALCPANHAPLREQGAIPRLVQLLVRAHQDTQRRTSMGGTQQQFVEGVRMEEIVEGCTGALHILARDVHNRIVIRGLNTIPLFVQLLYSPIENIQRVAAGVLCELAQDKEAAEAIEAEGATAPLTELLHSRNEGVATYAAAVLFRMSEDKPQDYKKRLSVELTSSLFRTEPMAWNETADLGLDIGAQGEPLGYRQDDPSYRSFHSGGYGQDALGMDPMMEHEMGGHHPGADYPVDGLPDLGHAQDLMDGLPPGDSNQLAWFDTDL
# UniProt Q02248: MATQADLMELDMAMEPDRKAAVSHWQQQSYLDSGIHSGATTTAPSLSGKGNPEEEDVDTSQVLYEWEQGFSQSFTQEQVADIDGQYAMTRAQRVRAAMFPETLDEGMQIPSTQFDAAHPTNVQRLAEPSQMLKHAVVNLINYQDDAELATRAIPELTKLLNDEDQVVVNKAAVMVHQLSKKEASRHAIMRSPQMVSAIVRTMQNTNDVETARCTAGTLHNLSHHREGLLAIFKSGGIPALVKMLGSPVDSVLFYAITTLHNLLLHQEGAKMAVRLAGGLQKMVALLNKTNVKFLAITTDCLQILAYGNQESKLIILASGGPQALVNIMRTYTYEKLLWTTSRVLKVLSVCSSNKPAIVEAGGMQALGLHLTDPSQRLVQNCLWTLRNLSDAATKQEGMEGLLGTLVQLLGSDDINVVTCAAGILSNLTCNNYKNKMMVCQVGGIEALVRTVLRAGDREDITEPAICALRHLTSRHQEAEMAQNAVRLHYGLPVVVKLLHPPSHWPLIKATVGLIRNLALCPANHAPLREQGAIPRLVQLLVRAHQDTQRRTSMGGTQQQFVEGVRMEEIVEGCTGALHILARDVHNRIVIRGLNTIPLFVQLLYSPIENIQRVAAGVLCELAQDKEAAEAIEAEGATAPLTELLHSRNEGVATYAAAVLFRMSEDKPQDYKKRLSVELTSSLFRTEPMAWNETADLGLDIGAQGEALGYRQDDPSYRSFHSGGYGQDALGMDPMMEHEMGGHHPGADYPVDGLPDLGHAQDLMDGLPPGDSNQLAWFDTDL
# No constants are given. Whether binding was seen depends on the method and setting. In cells and extracts the contact can be indirect. Some binding calls cover weakened binding; strength is not graded here.
# Tests used:
# [1] = molecular target: N-myc downstream-regulated gene 1 (NDRG1) (mouse (endogenous in corpus callosum)) (UniProt Q62433); assay: co-IP; immunoprecipitation with an NDRG1 antibody from corpus callosum lysates of normal mice and of mice after repeated WIRS; western blot for β-catenin, N-cadherin and α-catenin
# [2] = molecular target: serum glucocorticoid regulated kinase (SGK1) (mouse (endogenous in corpus callosum)) (UniProt Q9WVC6); assay: co-IP; immunoprecipitates prepared with a SGK1 antibody from corpus callosum lysates of control mice and of mice after repeated WIRS (chronic stress); immunoblotted with a NDRG1 antibody
# NDRG1-S330D = NDRG1-S330D (UniProt Q92597); assay: co-IP; immunoprecipitation and western blot from SK-N-SH cells overexpressing NDRG1-S330D (NDRG1-S330A and untransfected cells as controls)
Substance,binding [1],other results
N-cadherin (from UniProt P15116 160-906),no binding,
N-myc downstream-regulated gene 1 (NDRG1) (from UniProt Q62433 1-394),,binding [2]: binds
β-catenin (SK-N-SH cells) (from UniProt P35222 1-781),,binding (NDRG1-S330D): binds
β-catenin (from UniProt Q02248 1-781),binds,
